PubChem BioAssay AID2685 (National Center for Advancing Translational Sciences (NCATS), 2010)
Some of the results follow. Shown are side measurements of this screen, not its main read-out; they come without a call. Most of these compounds were active or inconclusive in the main read-out, so they are no random draw. Words in brackets tell the shape of the fitted curve; partial curves, single points and poor fits give uncertain potencies.

Assay: qHTS Assay for Lipid Storage Modulators in Drosophila S3 Cells;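 for cell number change: cells counted by Cell Tracker Red CMTPX staining in the red channel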
Conditions: BODIPY lipid droplet fluorescence, 18-24 h; for cell number change: measured here: cell count max response, cells fed with added oleic acid
Outline: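 Drosophila S3 cells got compounds at several concentrations plus oleic acid (400 uM solution). Laser-scanning cytometry with 488 nm excitation read lipid droplets at 500-530 nm and cells at 575-640 nm. Percent activity was relative to 20 uM Triacsin C.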

[1] = measured here: cell number channel AC50, cells fed with added oleic acid
[2] = measured here: lipid fluorescence (Fed channel) AC50, cells fed with added oleic acid

Row | Compound | cell number change [%] | AC50 [1] | AC50 [2]
1 | CCOC(=O)c1cccc(NC(=O)Cn2c(CC(=O)NC)nc3ccccc32)c1 | 7.31 | 1.64 µM [rising, partial curve] | –
2 | Cc1ccc(C)c(C(=O)COc2ccc(C)nc2[N+](=O)[O-])c1 | – | – | 3.66 µM [rising, full curve]
3 | Cc1ccc(-n2nc3c(c2NC(=O)c2ccc(S(=O)(=O)N4CCOCC4)cc2)CSC3)c(C)c1 | 153 | 16.4 µM [rising, partial curve] | 4.11 µM [falling, partial curve]
4 | COCCNCCOCCOc1ccc(Cl)c(C)c1 | -38 | 0.058 µM [falling, full curve, poor fit] | 23.1 µM [falling, partial curve]
5 | O=C(NC(=S)NCc1ccccc1)c1cccc([N+](=O)[O-])c1 | 8.45 | – | 18.4 µM [falling, single point]
6 | CC(=O)c1sc2nc(C)c3c(c2c1N)CCCC3 | 5.96 | – | 3.26 µM [rising, partial curve, poor fit]
7 | COc1ccccc1C(=O)Nc1ccc(NC(=O)c2ccco2)cn1 | -2.63 | – | 0.501 µM [rising, single point]
8 | O=C(O)c1ccccc1OC(=O)C12CC3CC(CC(C3)C1)C2 | 11 | – | 4.11 µM [rising, single point]
9 | O=C(NC(=S)NCCc1ccccn1)c1ccco1 | – | 0.058 µM [falling, full curve] | –
10 | Cc1ccc(NC(=O)c2cccnc2C(=O)O)nc1 | 11.7 | – | –
11 | COc1ccc(N(C(=O)c2snc(C(N)=O)c2N)C(C(=O)NCc2ccc(F)cc2)c2ccc(C)o2)c(OC)c1 (stereo not given) | 18.5 | 1.64 µM [rising, partial curve, poor fit] | 6.51 µM [rising, single point]
12 | CCOC(CNC(=O)c1ccc2c(c1)ncn2-c1ccccc1OC)OCC | 20.2 | – | 9.2 µM [rising, partial curve]
13 | Cc1cccc(-c2noc(CNC(=O)c3ccc4c(c3)OCO4)n2)c1 | -6.25 | – | –
14 | COc1ccc(OCCCC(=O)Nc2ccc(OC)c(S(=O)(=O)N3CCOCC3)c2)cc1 | 28.8 | – | 29.1 µM [rising, single point]
15 | COc1ccccc1C(=O)Nc1ccon1 | – | – | 6.51 µM [rising, single point]
16 | COc1ccc(CCNC(=O)c2ccc(N3CCCC3=O)cc2)cc1 | 44 | 29.1 µM [rising, single point] | 29.1 µM [rising, single point]
17 | O=C(CCCCCN1C(=O)c2ccccc2C1=O)NCc1ccccn1 | -23 | – | 0.082 µM [falling, full curve, poor fit]
18 | COc1nc(NCC(C)C)nc(Oc2ccc(OCc3ccccc3)nn2)n1 | -2.02 | – | 2.91 µM [rising, single point]
19 | Cc1ccc(S(=O)(=O)NC23CC4CC(CC(C4)C2)C3)cc1 | -30.3 | 18.4 µM [falling, single point] | –
20 | O=C(COC(=O)Cc1ccccc1[N+](=O)[O-])Nc1nnc(-c2ccccc2)o1 | 15.3 | – | –
21 | N#CC(C(=O)Nc1cccc(Cl)c1)=C1Nc2ccccc2N1 | – | – | 2.06 µM [rising, full curve, poor fit]
22 | COc1ccc(C/C(C)=N/NC(=S)Nc2ccccc2F)cc1 | 38.8 | – | –

Row | Compound | cell number change [%] | AC50 [1] | AC50 [2]
23 | CCC(C)[C@H](NC(=O)Nc1ccc(Oc2ccccc2)cc1)C(=O)O (stereo not given in full) | -4.75 | – | 1.84 µM [rising, partial curve, poor fit]
24 | CC1(C)NC(=O)N(CCCCOc2cccc(C(F)(F)F)c2)C1=O | -21.3 | – | –
25 | CC(C)C[C@H](NC(=O)c1nc[nH]c1C(=O)NCc1ccc(CNC(=O)OC(C)(C)C)cc1)C(=O)OC(C)(C)C | 44 | 0.82 µM [rising, partial curve] | 14.6 µM [falling, partial curve]
26 | O=C(Cc1ccc(Br)cc1)N1CCN(c2ccc(F)cc2)CC1 | -4.49 | – | 0.0731 µM [rising, full curve]
27 | Cc1ccccc1-n1nnnc1SCc1ncc(-c2ccccc2)o1 | 9.8 | 0.92 µM [rising, full curve] | 0.82 µM [rising, full curve, poor fit]
28 | CC(=O)c1c(C)[nH]c(C(=O)Nc2cccc(C)n2)c1C | -46 | 18.4 µM [falling, partial curve] | 0.366 µM [falling, partial curve]
29 | O=C(COC(=O)/C=C/c1ccccc1)NNC(=O)c1ccccc1F | 2.01 | – | –
30 | CCc1cccc(C)c1NC(=O)CCCn1c(=O)c2cccn2c2cccnc21 | -8.26 | – | 0.731 µM [rising, single point]
31 | CCOC(=O)CSc1c(-c2cccs2)[nH]c2ccccc12 | – | – | 29.1 µM [falling, single point]
32 | Cc1ccc(NC(=S)NN(C)c2cc(C)nc(C)n2)cc1 | 16.7 | – | –
33 | Cc1[nH]nc2ncc(C(=O)c3ccccc3O)cc12 | 0.488 | – | –
34 | C=CCn1c(SCC(=O)NCc2ccccc2)nnc1C1CCCCC1 | -19.1 | – | –
35 | Brc1ccc2[nH]c3nc(SCCN4CCOCC4)nnc3c2c1 | – | 0.082 µM [rising, full curve, poor fit] | 6.51 µM [rising, partial curve]
36 | CCCCCCCNC1=CC(=O)CC(c2ccccc2)C1 (stereo not given) | -30 | – | 29.1 µM [falling, single point]
37 | Cc1ccccc1-c1noc(C23CC4CC(CC(C4)C2)C3)n1 | 12.4 | – | 29.1 µM [falling, single point]
38 | Cc1cc(Cl)ccc1OCC(=O)NNC(=O)c1cccnc1 | -14.7 | – | 32.6 µM [falling, single point]
39 | CSc1nc(N)c2c(C)c(C)sc2n1 | – | 6.51 µM [rising, single point] | –
40 | Cc1nc2nc(C)c(CCC(=O)O)c(C)n2n1 | 13.9 | – | 5.8 µM [falling, full curve]
41 | c1nc(N2CCC3(CC2)OCCO3)c2c3c(sc2n1)CCCC3 | -11.6 | – | 0.411 µM [falling, full curve]
42 | COc1ccc(-n2c(Cn3c(=O)sc4ccccc43)nnc2SCC(N)=O)cc1 | 2.6 | – | 0.146 µM [falling, full curve, poor fit]
43 | Cc1ccc(C(=O)CN(C(=O)c2ccc(Cl)c(Cl)c2)N2C(=O)C3C4C=CC(C4)C3C2=O)cc1 (stereo not given) | – | 5.8 µM [falling, single point] | 6.51 µM [falling, single point]
44 | CCN1C(=O)[C@H]2[C@@H](c3ccc(C)cc3)N3C(=O)N(c4ccc(C)cc4)C(=O)[C@@]3(Cc3ccccc3)[C@H]2C1=O | 13.9 | – | –

Row | Compound | cell number change [%] | AC50 [1] | AC50 [2]
45 | COc1ccc(Br)cc1/C=N/n1nnnc1N | 9.91 | 1.84 µM [falling, partial curve] | –
46 | C=CCN(CC(=O)NCc1ccccc1)C(=O)c1csnn1 | -12 | 5.17 µM [falling, single point] | 0.0058 µM [falling, full curve, poor fit]
47 | O=C1CCC(/C=C/c2ccccc2)=NN1Cc1ccc(Cl)c(Cl)c1 | -19.7 | – | –
48 | CC(C)(C)c1ccc(C(=O)NCCC(=O)NC2=NCCS2)cc1 | 4 | – | 1.16 µM [falling, full curve, poor fit]
49 | O=C(Nc1nc2ccc(Cl)cc2s1)[C@@H]1CCCN1C(=O)c1cccs1 | 10.9 | – | –
50 | Cc1cc(-c2nnc(SCC(=O)N3C(C)CCCC3C)o2)no1 (stereo not given) | 58.8 | 29.1 µM [rising, single point] | 29.1 µM [rising, single point]
51 | CCOc1ccc(NC(=O)CN2CCN(S(=O)(=O)c3ccc(Cl)cc3)CC2)cc1 | 25.3 | – | 29.1 µM [rising, single point]
52 | Cc1cc(C)cc(OCC(=O)OCC(=O)NCc2ccco2)c1 | – | – | 6.51 µM [falling, single point]
53 | Cc1cc(CN(C)C(=O)CCc2nnc(Cc3cccc(C(F)(F)F)c3)o2)on1 | -8.32 | – | –
54 | O=C(Nc1ccncc1)c1cc(S(=O)(=O)N2CCN(c3ccccc3)CC2)ccc1Cl | – | – | 25.9 µM [falling, single point]
55 | N#CC1=C(N)OC2=C(C(=O)CCC2)C1c1ccncc1 (stereo not given) | -11.6 | – | 32.6 µM [rising, partial curve, poor fit]
56 | NS(=O)(=O)c1ccc(NC(=O)c2ccc3c(c2)OCO3)cc1 | 30.1 | – | –
57 | COCCNC(=O)c1ccc(-n2c(SCc3cccnc3)nc3ccccc3c2=O)cc1 | 94.7 | – | –
58 | O=C(Nc1cccc2c1CCCC2)c1ccccc1F | 5.25 | – | 29.1 µM [rising, single point]
59 | CCS(=O)(=O)N1N=C(c2cccs2)CC1c1cc2cc(C)ccc2nc1Cl (stereo not given) | 50.5 | 14.6 µM [rising, partial curve] | –
60 | CC1CCCN(C(=O)/C(=C/c2ccco2)NC(=O)c2ccccc2)C1 (stereo not given) | 8.57 | – | 0.206 µM [rising, single point]
61 | CCN1/C(=C/c2cc[n+](C)cc2)C=Cc2cc(C)ccc21 | -10.2 | – | –
62 | Cc1occc1C(=O)N1CCN(C(c2ccccc2)c2ccccc2)CC1 | -126 | 29.1 µM [falling, single point] | 29.1 µM [falling, single point]
63 | O=C(NCc1ccc(F)cc1)c1cnc2n(c1=O)CCS2 | 34.7 | 7.31 µM [rising, partial curve] | 7.31 µM [rising, partial curve]
64 | CN(C)S(=O)(=O)n1cc(/C=C(\NC(=O)c2ccccc2)C(=O)N2CCOCC2)c2ccccc21 | 80.7 | 29.1 µM [rising, single point] | –

Reprinted, nos. 61–62
Row | Compound | cell number change [%] | AC50 [1] | AC50 [2]
61 | CCN1/C(=C/c2cc[n+](C)cc2)C=Cc2cc(C)ccc21 | -10.2 | – | –
62 | Cc1occc1C(=O)N1CCN(C(c2ccccc2)c2ccccc2)CC1 | -126 | 29.1 µM [falling, single point] | 29.1 µM [falling, single point]
